Results from article doi:10.1101/2021.09.29.462327.
These are yes or no findings as the source states them, for the method shown. In cells and extracts the contact can be indirect. These calls come from enrichment with a bait or labelling near it, and not all partners need be listed.

By UniProt entry, the sequences of proteins in these tests, tags left out. Where a name states a change or a piece, a line headed by the entry shows the natural chain unless it says otherwise.
UniProt Q38CW6: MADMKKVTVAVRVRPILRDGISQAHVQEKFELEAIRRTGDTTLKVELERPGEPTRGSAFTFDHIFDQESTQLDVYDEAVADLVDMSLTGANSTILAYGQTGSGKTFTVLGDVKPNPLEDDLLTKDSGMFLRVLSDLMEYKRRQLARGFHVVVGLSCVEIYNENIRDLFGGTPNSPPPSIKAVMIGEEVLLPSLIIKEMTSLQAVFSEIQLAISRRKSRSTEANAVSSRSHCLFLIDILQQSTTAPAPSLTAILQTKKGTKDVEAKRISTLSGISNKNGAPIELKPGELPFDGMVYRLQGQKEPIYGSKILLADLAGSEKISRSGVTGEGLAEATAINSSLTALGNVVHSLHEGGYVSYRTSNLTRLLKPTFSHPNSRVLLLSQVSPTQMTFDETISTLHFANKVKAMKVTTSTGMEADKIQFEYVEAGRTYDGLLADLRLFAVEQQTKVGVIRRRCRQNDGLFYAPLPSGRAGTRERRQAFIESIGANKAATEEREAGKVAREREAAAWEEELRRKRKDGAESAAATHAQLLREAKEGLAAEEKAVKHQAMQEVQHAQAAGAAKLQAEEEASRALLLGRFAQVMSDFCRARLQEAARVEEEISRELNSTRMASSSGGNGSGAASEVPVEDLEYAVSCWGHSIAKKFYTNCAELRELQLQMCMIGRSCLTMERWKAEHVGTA

Molecular target: TbPH1-V5 (Trypanosoma brucei) (UniProt Q582W2)
Test: affinity purification with mass spectrometry

- binding: binds
Substance: TbKifX2A (from UniProt Q38CW6)
